Laboratory results taken from US20060063208A1.
No constants are given. Whether binding was seen depends on the method and setting. Some results given as binding are weak or reduced against the parent protein; the word gives no strength. Where a sequence is shown, tags or fusion partners need not be part of it.

How the values were obtained:
[1] = target: T1, BMP-2 (human) (UniProt P12643); assay: DSS crosslinking, protein A pull-down, non-reducing SDS-PAGE, α-RGMa Western blot
T1 sequence (iodinated with 125I where used as tracer, looked up): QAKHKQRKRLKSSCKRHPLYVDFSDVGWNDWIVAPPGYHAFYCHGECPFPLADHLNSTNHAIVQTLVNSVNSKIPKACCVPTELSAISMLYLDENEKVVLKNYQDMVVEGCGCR

[2] = target: T1, BMP-2 (human); assay: 10 ng RGMa.Fc with 125I-BMP-2 in solution, protein A coated plates
[3] = target: T2, BMP-4 (human) (UniProt P12644); assay: DSS crosslinking in solution, protein A beads, autoradiography
T2 sequence (iodinated with 125I where used as tracer, looked up): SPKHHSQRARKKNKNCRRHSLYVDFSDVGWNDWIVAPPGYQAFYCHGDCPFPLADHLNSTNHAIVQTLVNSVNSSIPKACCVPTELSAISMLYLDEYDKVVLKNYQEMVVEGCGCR

[4] = target: T1, BMP-2 (human); assay: as above
[5] = target: T1, BMP-2 (human); assay: RGMa.Fc with 125I-BMP-2 overnight in solution, protein A coated plates
[6] = target: T2, BMP-4 (human); assay: legend of FIGS. 34A and 34B
[7] = target: T1, BMP-2 (human); assay: legend of FIGS. 34A and 34B
[8] = target: T2, BMP-4 (human); assay: RGMa.Fc with 125I-BMP-4 in solution, protein A coated plates
[9] = target: T3, RGMa.Fc fusion protein (extracellular domain of murine RGMa fused to the Fc portion of human IgG) (mouse; human) (UniProt Q6PCX7); assay: competition with 125I-BMP-2 for RGMa.Fc, protein A plate capture
T3 sequence (looked up): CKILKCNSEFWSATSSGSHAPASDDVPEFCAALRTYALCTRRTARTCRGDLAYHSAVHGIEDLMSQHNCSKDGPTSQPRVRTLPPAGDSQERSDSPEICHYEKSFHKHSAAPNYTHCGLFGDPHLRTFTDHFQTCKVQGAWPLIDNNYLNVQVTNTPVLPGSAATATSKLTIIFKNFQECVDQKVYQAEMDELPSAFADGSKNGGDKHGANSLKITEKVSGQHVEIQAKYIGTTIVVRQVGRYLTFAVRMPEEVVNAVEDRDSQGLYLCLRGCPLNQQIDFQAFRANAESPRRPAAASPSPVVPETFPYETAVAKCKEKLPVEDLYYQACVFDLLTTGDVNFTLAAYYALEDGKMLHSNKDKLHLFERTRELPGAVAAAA

Measured: binding

B1: RGMa.Fc fusion protein (extracellular domain of murine RGMa fused to the Fc portion of human IgG) (Fc fusion, mouse, UniProt Q6PCX7 48-427, looked up, not shown: a dimerising Fc or GST)
chain: T3 sequence (looked up)
not listed: [9]
binds: all other assays above

B2: BMP-4 (ligand, human, UniProt P12644 293-408, looked up)
chain: T2 sequence (iodinated with 125I where used as tracer, looked up)
modifications: iodinated with 125I where used as tracer
binds: [9]
